Reference: US6610747B2, “Phenoxybenzylamine derivatives as SSRIs” (Pfizer Inc., priority 2000, dated 2003)
pIC50: −log10 of the molar value. Some entries share one result that the patent states for a list of compounds. For at least one compound, name, drawing or mass did not settle the structure.

By UniProt entry, the sequences of proteins in these tests, tags left out.
UniProt P31645, whole entry: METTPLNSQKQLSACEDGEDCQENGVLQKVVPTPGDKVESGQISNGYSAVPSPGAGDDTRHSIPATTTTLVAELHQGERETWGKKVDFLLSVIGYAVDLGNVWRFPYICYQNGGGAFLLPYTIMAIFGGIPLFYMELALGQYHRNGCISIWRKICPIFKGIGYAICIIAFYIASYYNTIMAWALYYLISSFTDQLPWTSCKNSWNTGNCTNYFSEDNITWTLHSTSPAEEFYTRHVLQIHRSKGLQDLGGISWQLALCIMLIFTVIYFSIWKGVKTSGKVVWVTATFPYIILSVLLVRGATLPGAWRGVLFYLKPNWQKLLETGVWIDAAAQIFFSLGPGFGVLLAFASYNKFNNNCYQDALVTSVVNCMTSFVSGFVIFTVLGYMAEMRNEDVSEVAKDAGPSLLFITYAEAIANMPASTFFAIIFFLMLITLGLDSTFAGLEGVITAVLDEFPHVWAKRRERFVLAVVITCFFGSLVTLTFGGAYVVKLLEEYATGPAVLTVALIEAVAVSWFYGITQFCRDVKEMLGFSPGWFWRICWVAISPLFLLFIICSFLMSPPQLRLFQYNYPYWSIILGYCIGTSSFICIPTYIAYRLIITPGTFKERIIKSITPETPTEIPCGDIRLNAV

Target: T1, human serotonin transporter (hSERT) (Homo sapiens, UniProt P31645)
T1 construct: expressed in transfected cells; host or cells: HEK-293
Assay: Inhibition of 3H-serotonin uptake in HEK-293 cells stably transfected with the human serotonin transporter (SRI)
Format: cell-based
Settings: HEK-293 cells expressing hSERT; 3H-5HT (50 nM); 5 min incubation; room temperature; read-out: serotonin re-uptake inhibition (SRI) IC50
Experimental: A number of compounds were tested for biological activity by their ability to inhibit the uptake of serotonin by human serotonin transporters as follows.
Human embryonic kidney cells (HEK-293) stably transfected with either the human serotonin transporter (hSERT), noradrenaline transporter (hNET) or dopamine transporter (hDAT) were cultured under standard cell culture techniques (cells were grown at 37° C. and 5% CO2 in DMEM-culture media (supplemented with 10% dialysed foetal calf serum (FCS), 2mM l-glutamine and 250 μg/ml geneticin)). Cells were harvested for the assay to yield a cell suspension of 750,000 cells/ml.
(i) Determination of Inhibitor Potency
All test compounds were dissolved in 100% DMSO and diluted down in assay buffer to give appropriate test concentrations. Assays were carried out in 96-well filter bottom plates. Cells (7500 cells/assay well) were pre-incubated in standard assay buffer containing either test compound, standard inhibitor or compound vehicle (1% DMSO) for 5 minutes. Reactions were started by addition of either ^3H-Serotonin, ^3H-Noradrenaline or ^3H-Dopamine substrates. All reactions were carried out at room temperature in a shaking incubator. Incubation times were 5 minutes for the hSERT and hDAT assays and 15 minutes for the hNET assay. Reactions were terminated by removal of the reaction mixture using a vacuum manifold followed by rapid washing with ice cold assay buffer. The quantity of ^3H-substrate incorporated into the cells was then quantified.
Assay plates were dried in a microwave oven, scintillation fluid added, and radioactivity measured.
(iii) Standard Assay Buffer Composition
Trizma hydrochloride (26 mM)
Note: The pH of the buffer was adjusted to 7.40 with 1M NaOH before addition of CaCl2 and pargyline.
(iv) Summary of Assay Parameters

SMILES | pIC50
CNCc1cc(S(N)(=O)=O)ccc1Oc1ccc(SC)c(Cl)c1 [Example 3] | ≥ 7.00
CNCc1cc(S(N)(=O)=O)ccc1Oc1ccc2c(c1)OCCS2 [Example 5] | ≥ 7.00
CNCc1cc(S(N)(=O)=O)ccc1Oc1ccc2c(c1)SCCO2 [Example 6] | ≥ 7.00
CNCc1cc(S(N)(=O)=O)ccc1Oc1ccc2c(c1)CCC2 [Example 8] | ≥ 7.00
CNCc1cc(S(N)(=O)=O)ccc1Oc1ccc2c(c1)CSC2 [Example 10] | ≥ 7.00
CNCc1cc(S(N)(=O)=O)ccc1Oc1ccc2c(c1)SCC2 [Example 11] | ≥ 7.00
CNS(=O)(=O)c1ccc(Oc2ccc(SC)c(C)c2)c(CN(C)C)c1 [Example 13, 3-[(dimethylamino)methyl]-N-methyl-4-[3-methyl-4-(methylsulfanyl)phenoxy]benzenesulfonamide] | ≥ 7.00
CN(C)Cc1cc(S(N)(=O)=O)ccc1Oc1ccc2c(c1)OCCS2 [Example 14, 4-(2,3-Dihydro-1,4-benzoxathiin-7-yloxy)-3-[(dimethylamino)methyl]-benzenesulfonamide] | ≥ 7.00
CNS(=O)(=O)c1ccc(Oc2ccc3c(c2)OCCS3)c(CN(C)C)c1 [Example 15, 4-(2,3-dihydro-1,4-benzoxathiin-7-yloxy)-3-[(dimethylamino)methyl]-N-methylbenzenesulfonamide] | ≥ 7.00
CN(C)Cc1cc(S(N)(=O)=O)ccc1Oc1ccc2c(c1)CCS2 [Example 16, 4-(2,3-dihydro-1-benzothien-5-yloxy)-3-[(dimethylamino)methyl]-benzenesulfonamide] | ≥ 7.00
CN(C)Cc1cc(S(N)(=O)=O)ccc1Oc1ccc2c(c1)COC2 [Example 20] | ≥ 7.00
CN(C)Cc1cc(S(N)(=O)=O)ccc1Oc1ccc2c(c1)CCC2 [Example 21] | ≥ 7.00
CN(C)Cc1cc(S(N)(=O)=O)ccc1Oc1ccc2c(c1)CSC2 [Example 22] | ≥ 7.00
CN(C)Cc1cc(S(N)(=O)=O)ccc1Oc1ccc2c(c1)SCC2 [Example 23] | ≥ 7.00
COc1ccc(Oc2ccc(SC)c(C)c2)c(CN(C)C)c1 [Example 25, N-{5-Methoxy-2-[3-methyl-4-(methylsulfanyl)phenoxy]benzyl}-N,N-dimethylamine] | ≥ 7.00
CN(C)Cc1ccccc1Oc1ccc2scnc2c1 [Example 31] | ≥ 7.00
CN(C)Cc1cc(Br)ccc1Oc1ccc2c(c1)SCC2 [Example 32] | ≥ 7.00
CNS(=O)(=O)c1ccc(Oc2ccc3ncccc3c2)c(CN(C)C)c1 [Example 34, 3-[(Dimethylamino)methyl]-N-methyl-4-(6-quinolinyloxy)benzenesulfonamide] | ≥ 7.00
CNCc1cc(S(N)(=O)=O)ccc1Oc1ccc2ncccc2c1 [Example 35, 3-[(Methylamino)methyl]-4-(6-quinolinyloxy)benzenesulfonamide] | ≥ 7.00
CNCc1ccccc1Oc1ccc2c(c1)CCS2 [Example 46] | ≥ 7.00
CN(C)Cc1cc(CCC(N)=O)ccc1Oc1ccc2c(c1)SCC2 [Example 51, 3-{4-(2,3-Dihydro-1-benzothien-6-yloxy)-3-[(dimethylamino)methyl]phenyl}propanamide] | ≥ 7.00
CN(C)Cc1cc(C(N)=O)ccc1Oc1ccc2c(c1)SCC2 [Example 56] | ≥ 7.00
CSc1ccc(Oc2cc(C(N)=O)ccc2CN(C)C)cc1C [Example 57] | ≥ 7.00
CN(C)Cc1cc(CO)ccc1Oc1ccc2c(c1)SCC2 [Example 58] | ≥ 7.00
CSc1ccc(Oc2cc(CO)ccc2CN(C)C)cc1C [Example 59] | ≥ 7.00
CNCc1cc(C(=O)NC)ccc1Oc1ccc(SC)c(Cl)c1 [Example 67] | ≥ 7.00

Same assay, conditions: selectivity hSERT versus both hDAT and hNET uptake assays (HEK-293 cells)

SMILES | fold more potent in the inhibition of serotonin re-uptake than in the inhibition of dopamine re-uptake and noradrenaline re-uptake
CNCc1cc(S(N)(=O)=O)ccc1Oc1ccc(SC)c(C)c1 [Example 1] | more than 100 fold
CNCc1cc(S(N)(=O)=O)ccc1Oc1ccc2c(c1)CCS2 [Example 2, 4-(2,3-dihydro-1-benzothien-5-yloxy)-3-[(methylamino)methyl]-benzenesulfonamide] | more than 100 fold
CNCc1cc(S(N)(=O)=O)ccc1Oc1ccc(SC)c(F)c1 [Example 4] | more than 100 fold
CSc1ccc(Oc2ccc(S(N)(=O)=O)cc2CN(C)C)cc1C [Example 12, 3-[(Dimethylamino)methyl]-4-[3-methyl-4-(methylsulfanyl)phenoxy]-benzenesulfonamide] | more than 100 fold
CSc1ccc(Oc2ccc(S(N)(=O)=O)cc2CN(C)C)cc1Cl [Example 17, 4-[3-chloro-4-(methylsulfanyl)phenoxy]-3-[(dimethylamino)methyl]-benzenesulfonamide] | more than 100 fold
CSc1ccc(Oc2ccc(S(N)(=O)=O)cc2CN(C)C)cc1F [Example 18, 3-[(dimethylamino)methyl]-4-[3-fluoro-4-(methylsulfanyl)phenoxy]-benzenesulfonamide] | more than 100 fold
CN(C)Cc1cc(F)ccc1Oc1ccc2ncccc2c1 [Example 26] | more than 100 fold
CN(C)Cc1ccccc1Oc1ccc2ncccc2c1 [Example 29, N,N-dimethyl-N-[2-(6-quinolinyloxy)benzyl]amine] | more than 100 fold
CN(C)Cc1ccccc1Oc1ccc2ncncc2c1 [Example 30] | more than 100 fold
CNCc1cc(Br)ccc1Oc1ccc2c(c1)CCS2 [Example 36, N-[5-Bromo-2-(2,3-dihydro-1-benzothien-5-yloxy)benzyl]-N-methylamine] | more than 100 fold
CNCc1cc(OC)ccc1Oc1ccc(SC)c(C)c1 [Example 43] | more than 100 fold
CNCc1ccccc1Oc1ccc(SC)c(C)c1 [Example 45] | more than 100 fold
CNCc1cc(C#N)ccc1Oc1ccc2ncccc2c1 [Example 49] | more than 100 fold
CNCc1cc(C(N)=O)ccc1Oc1ccc2c(c1)CCS2 [Example 60, 4-(2,3-Dihydro-1-benzothien-5-yloxy)-3-[(methylamino)methyl]benzamide] | more than 100 fold
CNCc1cc(C(=O)NCCOC)ccc1Oc1ccc2c(c1)CCS2 [Example 61] | more than 100 fold
CNCc1cc(C(=O)NC)ccc1Oc1ccc2c(c1)CCS2 [Example 62, 4-(2,3-dihydro-1-benzothien-5-yloxy)-N-methyl-3-[(methylamino)methyl]-benzamide] | more than 100 fold
CNCc1cc(C(N)=O)ccc1Oc1ccc(SC)c(F)c1 [Example 63] | more than 100 fold
CNCc1cc(C(=O)NC)ccc1Oc1ccc(SC)c(F)c1 [Example 64] | more than 100 fold
CNCc1cc(C(=O)NCCOC)ccc1Oc1ccc(SC)c(F)c1 [Example 65] | more than 100 fold
CNCc1cc(C(N)=O)ccc1Oc1ccc(SC)c(Cl)c1 [Example 66] | more than 100 fold
CNCc1cc(C(N)=O)ccc1Oc1ccc2c(c1)OCCS2 [Example 68] | more than 100 fold
CNCc1cc(CO)ccc1Oc1ccc(SC)c(F)c1 [Example 70] | more than 100 fold
CNCc1cc(CO)ccc1Oc1ccc(SC)c(Cl)c1 [Example 71] | more than 100 fold

Same assay, conditions: selectivity hSERT versus hDAT or hNET uptake assays (HEK-293 cells)

SMILES | fold more potent in the inhibition of serotonin re-uptake than in the inhibition of dopamine re-uptake or noradrenaline re-uptake
CNCc1cc(S(N)(=O)=O)ccc1Oc1ccc(SC)c(Cl)c1 [Example 3] | more than 10 fold
CNCc1cc(S(N)(=O)=O)ccc1Oc1ccc2c(c1)SCCO2 [Example 6] | more than 10 fold
CNCc1cc(S(N)(=O)=O)ccc1Oc1ccc2c(c1)CSC2 [Example 10] | more than 10 fold
CNCc1cc(S(N)(=O)=O)ccc1Oc1ccc2c(c1)SCC2 [Example 11] | more than 10 fold
CN(C)Cc1cc(CCC(N)=O)ccc1Oc1ccc2c(c1)SCC2 [Example 51, 3-{4-(2,3-Dihydro-1-benzothien-6-yloxy)-3-[(dimethylamino)methyl]phenyl}propanamide] | more than 10 fold
CSc1ccc(Oc2cc(C(N)=O)ccc2CN(C)C)cc1C [Example 57] | more than 10 fold
